Counter-ions that a name gives are not always drawn.
Tested on: normal esophageal epithelium cell line EACN42
Assay: FDA library drug sensitivity testing (CellTiter-Glo, 72 h), normal control cells
Format: cell-based, human
Design: key to DSS: modified drug sensitivity score (DSSmod) from dose-response curve fit
Procedure: The normal esophageal epithelium cell line EACN42 was established in the Capobianco laboratory. The cell lines was derived from human normal epithelium and immortalized using HPV E6-E7.
Drug sensitivity testing (DST) was performed as described previously. […] Individual drugs were dissolved in 100% DMSO and tested in duplicates starting at a maximal test concentration of 10μM then over a 20,000-fold concentration range to generate dose response curves. Wells with assay buffer containing DMSO served as negative controls. 1000 exponentially growing cells were seeded per well in 384-well micro-titer plates and incubated in the presence of compounds in a humidified environment at 37°C and 5% CO2. After 72 hours of treatment, cell viability was assessed by measuring ATP levels via bioluminescence (CellTiter-Glo, Promega) according to manufactures recommendations. Interpretation of curve parameters was performed according to the modified drug sensitivity scoring (DSSmod) function developed by Swords et al. […] Given in this way, the sDSSmod incorporated information on each drug’s potency, efficacy, effect range and therapeutic index, making it possible to prioritize compounds over multiple parameters using a single numerical metric. […] All calculations and scoring routines are implemented in MatLab and additional curve fitting and statistical analyses are performed in GraphPad prism.

Row | Compound | DSS (drug sensitivity score) | EC50 (Homo sapiens, cell viability (ATP), max test concentration 10μM)
1 | COC(=O)[C@H](CCCN=C(N)N)NS(=O)(=O)c1ccc(C)cc1 [TAME] | 0 | –
2 | CCN[C@H]1C[C@H](C)S(=O)(=O)c2sc(S(N)(=O)=O)cc21 [Dorzolamide HCL] | – | 5.33 µM

From article PMC6136712, “Ex vivo drug sensitivity testing as a means for drug repurposing in esophageal adenocarcinoma” (PLoS ONE, 2018)
